## Primary screen of a compound library

The chains behind the UniProt entries cited, without tags or fusion partners. Residues count along the entry.
UniProt P9WNZ1, whole entry: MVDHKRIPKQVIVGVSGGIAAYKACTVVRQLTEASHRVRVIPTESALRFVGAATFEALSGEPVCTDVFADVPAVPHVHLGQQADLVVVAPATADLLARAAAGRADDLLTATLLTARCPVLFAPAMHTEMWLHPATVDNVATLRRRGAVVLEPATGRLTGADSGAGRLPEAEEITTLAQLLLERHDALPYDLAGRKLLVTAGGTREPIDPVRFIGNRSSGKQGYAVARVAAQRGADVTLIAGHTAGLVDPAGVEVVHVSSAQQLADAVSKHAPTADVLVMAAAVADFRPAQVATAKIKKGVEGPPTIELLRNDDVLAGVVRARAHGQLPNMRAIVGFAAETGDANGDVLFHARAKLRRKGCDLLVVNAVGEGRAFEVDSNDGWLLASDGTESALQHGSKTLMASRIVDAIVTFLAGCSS
UniProt P9WFT3, whole entry: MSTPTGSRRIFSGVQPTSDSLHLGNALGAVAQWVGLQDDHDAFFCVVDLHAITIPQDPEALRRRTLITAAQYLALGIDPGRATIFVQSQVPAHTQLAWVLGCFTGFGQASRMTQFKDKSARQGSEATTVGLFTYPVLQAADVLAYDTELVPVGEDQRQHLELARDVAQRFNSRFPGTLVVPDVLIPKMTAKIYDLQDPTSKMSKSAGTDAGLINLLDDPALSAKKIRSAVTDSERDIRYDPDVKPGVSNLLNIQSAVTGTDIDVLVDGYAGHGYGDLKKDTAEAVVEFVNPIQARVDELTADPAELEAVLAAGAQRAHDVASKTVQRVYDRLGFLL
UniProt P9WPC5, whole entry: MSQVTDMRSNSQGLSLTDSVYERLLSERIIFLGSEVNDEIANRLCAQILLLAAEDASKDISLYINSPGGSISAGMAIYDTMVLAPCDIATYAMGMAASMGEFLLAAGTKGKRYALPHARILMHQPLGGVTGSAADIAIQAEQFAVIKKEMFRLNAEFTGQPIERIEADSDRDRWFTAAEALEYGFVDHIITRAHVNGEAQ
UniProt P9WPC3, whole entry partner: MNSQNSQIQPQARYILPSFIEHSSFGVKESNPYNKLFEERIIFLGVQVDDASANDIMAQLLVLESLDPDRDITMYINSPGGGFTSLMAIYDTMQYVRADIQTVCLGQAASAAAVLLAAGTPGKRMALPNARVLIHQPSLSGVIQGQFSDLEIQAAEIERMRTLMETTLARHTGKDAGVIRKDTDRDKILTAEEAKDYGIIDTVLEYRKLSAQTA
UniProt A4I591, 1-473: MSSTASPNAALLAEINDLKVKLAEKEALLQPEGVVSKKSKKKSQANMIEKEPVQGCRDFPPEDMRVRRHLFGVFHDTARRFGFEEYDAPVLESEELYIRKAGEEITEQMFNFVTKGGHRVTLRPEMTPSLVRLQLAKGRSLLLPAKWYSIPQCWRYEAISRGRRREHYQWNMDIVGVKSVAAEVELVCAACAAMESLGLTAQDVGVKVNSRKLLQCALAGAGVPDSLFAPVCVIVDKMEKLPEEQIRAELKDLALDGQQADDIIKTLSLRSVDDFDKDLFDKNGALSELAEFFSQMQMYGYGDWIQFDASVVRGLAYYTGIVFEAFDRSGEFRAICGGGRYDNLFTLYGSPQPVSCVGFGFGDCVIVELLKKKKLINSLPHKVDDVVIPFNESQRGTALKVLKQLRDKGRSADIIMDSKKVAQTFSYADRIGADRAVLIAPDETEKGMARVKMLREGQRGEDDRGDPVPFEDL
UniProt Q4DA54, 1-478: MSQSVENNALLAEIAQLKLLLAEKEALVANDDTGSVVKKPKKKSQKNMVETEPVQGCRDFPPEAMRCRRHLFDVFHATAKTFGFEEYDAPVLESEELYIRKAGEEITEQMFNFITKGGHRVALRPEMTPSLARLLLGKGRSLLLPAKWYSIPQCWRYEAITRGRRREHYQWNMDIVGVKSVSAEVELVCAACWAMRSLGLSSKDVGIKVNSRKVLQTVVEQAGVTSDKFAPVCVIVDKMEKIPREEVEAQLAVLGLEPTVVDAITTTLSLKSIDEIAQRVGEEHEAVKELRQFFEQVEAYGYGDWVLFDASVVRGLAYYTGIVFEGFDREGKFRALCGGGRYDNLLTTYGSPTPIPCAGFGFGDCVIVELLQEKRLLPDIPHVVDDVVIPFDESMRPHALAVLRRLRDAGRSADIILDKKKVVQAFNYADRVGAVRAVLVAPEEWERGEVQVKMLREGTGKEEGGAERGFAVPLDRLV

The values are deposited in ChEMBL (CHEMBL3988442, “University of Dundee, Small-Polar-MMV Screening Library” (2021)).

CoaBC: 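Enzyme assay of CoaBC with a phosphate dye (Biomol Green) read at 650 nm. Target: Coenzyme A biosynthesis protein CoaBC, Mycobacterium tuberculosis (UniProt P9WNZ1). Compounds at 30 µM. Higher reads as stronger inhibition, judged from the few compounds that gave an IC50. Most strong results did not repeat in a second test. About 67,000 compounds were tested under these conditions; 0.06% (about 40) showed 50% or more at least once.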
MtTrpRS: 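Tryptophan-tRNA ligase, Mycobacterium tuberculosis (UniProt P9WFT3). Enzyme assay of tryptophanyl-tRNA synthetase; the read-out is not stated. Compounds at 10 µM. Higher most likely means stronger inhibition; the record gives no direction and few retests gave an IC50. Size under these conditions: about 65,000 compounds, about 64 of them at 50% or above in at least one test.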
ClpP1P2: 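Protease assay of ClpP1P2, read by the AMC dye that it sets free. Target: ClpP1P2, Mycobacterium tuberculosis (UniProt P9WPC5 and UniProt P9WPC3). Tested at 50 µM. Higher reads as stronger inhibition, judged from the few compounds that gave an IC50. Most other retested compounds had strongly negative values. About 69,000 compounds were tested under these conditions; 0.015% (about 10) showed 50% or more at least once.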
LiHisRS: 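Histidine-tRNA ligase, Leishmania infantum (UniProt A4I591). Enzyme assay of histidyl-tRNA synthetase; the read-out is not stated. Tested at 30 µM. The record gives no direction; compounds that gave an IC50 in retests scored well above the rest, so higher reads as stronger inhibition. The assay is labelled LdHisRS but filed under L. infantum. About 69,000 compounds were tested under these conditions; 0.6% (about 410) showed 50% or more at least once.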
TcHisRS: 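Histidine-tRNA ligase, Trypanosoma cruzi CL Brener (UniProt Q4DA54). Enzyme assay of histidyl-tRNA synthetase; the read-out is not stated. Compounds at 30 µM. The record gives no direction; compounds that gave an IC50 in retests scored well above the rest, so higher reads as stronger inhibition. Of about 69,000 compounds tested this way, about 31 (0.045%) reached 50% or more in at least one test.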

Each number is a percent effect as filed.
The controls that fix the scale are not given in the record; negative values are as filed.
This is an unselected part of the compounds tested.
Two or more numbers in one place are separate tests of the same structure; such repeats can differ widely.
A dash means the value is not listed here; it may have been measured.

| # | Compound | CoaBC | MtTrpRS | ClpP1P2 | LiHisRS | TcHisRS |
|---|---|---|---|---|---|---|
| 1 | `Cn1nc(CN2CCCCC2)c2c1CN(C(=O)c1ccccc1)C2` | -4.883 | -4.606 | -10.5 | 4.425 | 7.2 |
| 2 | `CCN(CC)C(=O)CCNC(=O)Cc1nc(-c2ccco2)oc1C` | -7.589 | -4.44 | 2.302 | 2.913 | 2.075 |
| 3 | `COCC(=O)N(C)Cc1ccc(Cl)c(Cl)c1` | 4.184 | -0.7415 | 2.714 | 5.714 | 4.348 |
| 4 | `c1cncc(CN2CCCC3(COCCN(c4cnccn4)C3)C2)c1` (stereo not shown) | 10.42 | 2.766 | -29.84 | 28.57 | 6.863 |
| 5 | `Cc1cc(S(C)(=O)=O)c(C)c(S(=O)(=O)NC2CCCC2)c1` | 8.333 | 1.323 | 0.6033 | 28.77 | 2.956 |
| 6 | `Cc1ccc(N2CCCC3(COCCN(c4cnccn4)C3)C2)nn1` (stereo not shown) | 5.977 | 6.302 | -13.73 | 30.85 | 13.07 |
| 7 | `Cc1ccc(N2CCCN(C(=O)CC3CCCO3)CC2)nn1` (stereo not shown) | 4.864 | -0.7042 | 15.56 | 11.9 | 2.256 |
| 8 | `CCn1nc(C)c2ncnc(NCCCN3CCOCC3)c21` | 0.9421 | 6.03 | 1.43 | 9.709 | -1.639 |
| 9 | `c1cc(-c2noc(C3CCC3)n2)cc(N2CCCCC2)n1` | 1.463 | -3.905 | -9.363 | 13.33 | 9.091 |
| 10 | `Cc1csc(N2CCCN(C(=O)CCNc3ncccn3)CC2)n1` | -11.53 | -3.107 | -30.75 | 11.4 | 2.616 |
| 11 | `COCC1CC2(CCN(CC3CC3)CC2)CN1Cc1ccccn1` (stereo not shown) | -2.97 | - | -3.315 | 18.92 | 5.525 |
| 12 | `CN(C)S(=O)(=O)N1CCO[C@H]2[C@H](Oc3cccnc3)CC[C@@H]21` | 4.069 | -3.003 | -10.05 | 20.97 | 0 |
| 13 | `O=C(CN1CCN(c2ncnc3cccc(F)c23)CC1)N1CCCC1` | 5.104 | -6.893 | 5.298 | 1.667 | 0.9804 |
| 14 | `NC(=O)CN1CCC(C(=O)NCCn2cc(Cl)cn2)CC1` | -0.8 | -7.603 | -5.25 | -12.82 | 6.897 |
| 15 | `CCCN(CC)Cc1ccc(C(=O)NCC2COCCO2)c(=O)[nH]1` (stereo not shown) | 0 | 1.817 | -12.86 | 15.87 | 7.692 |
| 16 | `Cc1cccc(C2(NC(=O)CCCn3cncn3)CCCC2)c1` | 2.314 | 0.1432 | -5.813 | 20.43 | 10.12 |
| 17 | `COc1ccc(CN2C[C@@H]3CN(C(=O)c4ccsc4)C[C@@H]3C2=O)cc1` | 1.303 | -0.3255 | -1.921 | 34.29 | 9.804 |
| 18 | `COc1ccccc1COCC(O)CN(C)Cc1cccc(Cl)c1` (stereo not shown) | 0.7595 | 0.4772 | 5.412 | 13.16 | 0 |
| 19 | `Cc1cc(C)n(CCCn2cncc2-c2ccc3c(c2)CC(C)N3C)n1` (stereo not shown) | 23.74 and 25.26 | -7.542 | -90.11 | 64.43 | 36.86 |
| 20 | `O=C(CCn1ccc2ccc(Br)cc21)/N=c1\[nH]nc(C2CCCO2)s1` (stereo not shown) | 3.767 | -1.447 | 1.997 | 8.696 | 2.97 |
| 21 | `O=C(CC1CC1)NCc1cn2c(n1)CN(Cc1nccs1)CC2` | 2.03 | -6.173 | 8.908 | 14.71 | 10.84 |
| 22 | `COc1cccc(CCCn2cnnc2[S+](C)[O-])c1` (stereo not shown) | 0.7371 | 1.667 | -7.284 | 12.9 | 1.235 |
| 23 | `CC(C(=O)Nc1ccnn1C(C)C)N1CCc2nn(C)c(=O)cc2C1` (stereo not shown) | -0.3468 | 0.5025 | -9.392 | 25 | 3.509 |
| 24 | `Cc1ccnc(NC(=O)c2cnc(C3CCCNC3)cn2)c1` (stereo not shown) | 1.314 | -1.106 | -2.98 | 13.04 | 7.576 |
| 25 | `Nc1cc(-c2cccs2)nn(CC(=O)N2CCc3ccccc32)c1=O` | 10.02 | -2.888 | -6.377 | 1.418 | -2.632 |
| 26 | `CC(C)c1noc(CCC(=O)NCC(c2ccco2)N2CCCC2)n1` (stereo not shown) | 5.941 | -5.74 | -13.87 | 14 | 7.229 |
| 27 | `Cc1noc(C)c1CNC(=O)Nc1ccc(N2CCSCC2)cc1` | -3.398 | 1.584 | -9.334 | 7.143 | 6.931 |
| 28 | `CC1CCCCN1C(=O)c1ccn(COc2ccc(F)cc2)n1` (stereo not shown) | -1.848 | -1.943 | 3.404 | 5.172 | 0 |
| 29 | `CCCNC(=O)C(C)N1CCC(C(=O)Nc2cnn(CC)c2)CC1` (stereo not shown) | 2.682 | -9.171 | -33.89 | 11.61 | 5.78 |
| 30 | `CCCC(=O)N(C)Cc1nc(N2CCCC2)ncc1-c1ccncc1` | -9.371 | -4.09 | -5.895 | 35.21 | 25.76 |
| 31 | `Cc1nnc(N2C[C@@H]3CCCO[C@@H]3[C@H](N(C)C)C2)s1` | - | 6.365 | -0.759 | -5.172 | 1.266 |
| 32 | `O=C1OCCN1Cc1ccc(C(F)(F)F)cc1F` | 1.79 | -2.362 | -17.79 | 6.557 | 4.04 |

The first 3 entries again:

Compound	CoaBC	MtTrpRS	ClpP1P2	LiHisRS	TcHisRS
Cn1nc(CN2CCCCC2)c2c1CN(C(=O)c1ccccc1)C2	-4.883	-4.606	-10.5	4.425	7.2
CCN(CC)C(=O)CCNC(=O)Cc1nc(-c2ccco2)oc1C	-7.589	-4.44	2.302	2.913	2.075
COCC(=O)N(C)Cc1ccc(Cl)c(Cl)c1	4.184	-0.7415	2.714	5.714	4.348